Taken from: PubChem BioAssay AID720703 (Peter MacCallum Cancer Centre, 2013)

- Purpose: 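Kinase knock-down screen for links between AT1R and EGFR signalling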 (primary screen)
- System: immortalised, SV40-transformed mammary epithelial cells from human, with stable expression of tagged AT1R
- Reagents: siRNA pool against human genes, 40 nM siRNA pool per well
- Timing: 72 h from transfection to lysis and read-out
- Treatment: angiotensin II stimulation (dose and duration not given); EGFR inhibitor AG1478 also listed
- Measured: 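AlphaScreen bead assay of phosphorylated ERK1/2 in cell lysates, corrected for well confluency, converted to robust z-scores and averaged across two technical replicate plates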
- Direction: phospho-ERK z-score: higher = more ERK phosphorylation after angiotensin II, relative to plate
- Hit rule: 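Pools were ordered by robust z-score and 50 top-ranked pools, whether they raised or lowered the signal, were chosen for secondary testing; no numeric threshold was reported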
- Meaning of the calls: active = picked for secondary screen; inactive = not picked
In all, the deposit lists 714 reagents; this is an unselected part. In the full data, 50 (7%) were called active. 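Chosen pools sit at both extremes, so both low and high scores count as candidates; some pools appear more than once.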 Unmarked entries are inactive. A reagent listed more than once was tested more than once; the source does not tell the runs apart.

PRPS2 (phosphoribosyl pyrophosphate synthetase 2) [SID152153546] → phospho-ERK z-score, replicate mean = 0.28
ERBB2 (erb-b2 receptor tyrosine kinase 2) [SID152153302] → phospho-ERK z-score, replicate mean = -1.16 (active)
EPHA5 (EPH receptor A5) [SID152153658] → phospho-ERK z-score, replicate mean = -0.38
MAP3K2 (mitogen-activated protein kinase kinase kinase 2) [SID135620706] → phospho-ERK z-score, replicate mean = -0.8
TSSK1B (testis specific serine kinase 1B) [SID56478967] → phospho-ERK z-score, replicate mean = -0.62
TSSK1B (testis specific serine kinase 1B) [SID56478967] → phospho-ERK z-score, replicate mean = -0.11
PLK1 (polo like kinase 1) [SID56478632] → phospho-ERK z-score, replicate mean = 2.15
CAMKK1 (calcium/calmodulin dependent protein kinase kinase 1) [SID135620905] → phospho-ERK z-score, replicate mean = -0.77
CAMKK1 (calcium/calmodulin dependent protein kinase kinase 1) [SID135620905] → phospho-ERK z-score, replicate mean = 0.62
DGKQ (diacylglycerol kinase theta) [SID56478983] → phospho-ERK z-score, replicate mean = -0.74
SYK (spleen associated tyrosine kinase) [SID56478554] → phospho-ERK z-score, replicate mean = 1.64
PSTK (phosphoseryl-tRNA kinase) [SID134320501] → phospho-ERK z-score, replicate mean = 0.38
PAK3 (p21 (RAC1) activated kinase 3) [SID56478716] → phospho-ERK z-score, replicate mean = 0.81
MAPK14 (mitogen-activated protein kinase 14) [SID135620690] → phospho-ERK z-score, replicate mean = -0.11
FYN (FYN proto-oncogene, Src family tyrosine kinase) [SID135620621] → phospho-ERK z-score, replicate mean = 0.05
CPNE3 (copine 3) [SID134315878] → phospho-ERK z-score, replicate mean = 0.43
TSSK3 (testis specific serine kinase 3) [SID152155438] → phospho-ERK z-score, replicate mean = 1
MAP2K7 (mitogen-activated protein kinase kinase 7) [SID56478752] → phospho-ERK z-score, replicate mean = -0.1
GRK6 (G protein-coupled receptor kinase 6) [SID135620853] → phospho-ERK z-score, replicate mean = -0.16
DYRK4 (dual specificity tyrosine phosphorylation regulated kinase 4) [SID56478859] → phospho-ERK z-score, replicate mean = -0.75
DAPK3 (death associated protein kinase 3) [SID56478935] → phospho-ERK z-score, replicate mean = 0.99
PIP4K2C (phosphatidylinositol-5-phosphate 4-kinase type 2 gamma) [SID56478804] → phospho-ERK z-score, replicate mean = -0.1
IP6K2 (inositol hexakisphosphate kinase 2) [SID56479106] → phospho-ERK z-score, replicate mean = 2.11
GSK3A (glycogen synthase kinase 3 alpha) [SID56478467] → phospho-ERK z-score, replicate mean = -0.09
PDK4 (pyruvate dehydrogenase kinase 4) [SID152155412] → phospho-ERK z-score, replicate mean = -0.88
TYRO3 (TYRO3 protein tyrosine kinase) [SID56478561] → phospho-ERK z-score, replicate mean = 1.48
STRADB (STE20 related adaptor beta) [SID135620967] → phospho-ERK z-score, replicate mean = -0.12
AURKA (aurora kinase A) [SID135620696] → phospho-ERK z-score, replicate mean = 0.42
ULK2 (unc-51 like autophagy activating kinase 2) [SID56479062] → phospho-ERK z-score, replicate mean = -0.02
TTK (TTK protein kinase) [SID56478775] → phospho-ERK z-score, replicate mean = 1.69
NTRK2 (neurotrophic receptor tyrosine kinase 2) [SID152152425] → phospho-ERK z-score, replicate mean = 0.14
TNIK (TRAF2 and NCK interacting kinase) [SID152153870] → phospho-ERK z-score, replicate mean = -0.3
DAPK1 (death associated protein kinase 1) [SID135620826] → phospho-ERK z-score, replicate mean = -0.71
NME2 (NME/NM23 nucleoside diphosphate kinase 2) [SID152149420] → phospho-ERK z-score, replicate mean = -0.94
MAGI2 [SID135622325] → phospho-ERK z-score, replicate mean = 1
EPHA4 (EPH receptor A4) [SID152148822] → phospho-ERK z-score, replicate mean = 0.14
RFK (riboflavin kinase) [SID152154046] → phospho-ERK z-score, replicate mean = 0.84
NEK7 (NIMA related kinase 7) [SID56478729] → phospho-ERK z-score, replicate mean = -0.76
CDKN1C (cyclin dependent kinase inhibitor 1C) [SID56478604] → phospho-ERK z-score, replicate mean = -1.1
CKB (creatine kinase B) [SID56479084] → phospho-ERK z-score, replicate mean = 0.27
JAK3 (Janus kinase 3) [SID56478525] → phospho-ERK z-score, replicate mean = -1.07
ROCK1 (Rho associated coiled-coil containing protein kinase 1) [SID152156760] → phospho-ERK z-score, replicate mean = -0.29
POMK (protein O-mannose kinase) [SID56479008] → phospho-ERK z-score, replicate mean = -0.03
POMK (protein O-mannose kinase) [SID56479008] → phospho-ERK z-score, replicate mean = -0.01
CKM (creatine kinase, M-type) [SID56479085] → phospho-ERK z-score, replicate mean = -0.6
BRD2 (bromodomain containing 2) [SID135620911] → phospho-ERK z-score, replicate mean = -0.51
MAPK3 (mitogen-activated protein kinase 3) [SID135620708] → phospho-ERK z-score, replicate mean = 1.95
DYRK2 (dual specificity tyrosine phosphorylation regulated kinase 2) [SID152156553] → phospho-ERK z-score, replicate mean = 1.23
ACVR1 (activin A receptor type 1) [SID152154539] → phospho-ERK z-score, replicate mean = 0.44
FLT4 (fms related receptor tyrosine kinase 4) [SID152148537] → phospho-ERK z-score, replicate mean = -0.48
MARK4 (microtubule affinity regulating kinase 4) [SID56479022] → phospho-ERK z-score, replicate mean = -0.05
ITPKC (inositol-trisphosphate 3-kinase C) [SID56479112] → phospho-ERK z-score, replicate mean = 0.13
CERT1 (ceramide transporter 1) [SID56479254] → phospho-ERK z-score, replicate mean = -0.84
EGFR (epidermal growth factor receptor) [SID152164165] → phospho-ERK z-score, replicate mean = -1.31 (active)
TWF1 (twinfilin actin binding protein 1) [SID56478546] → phospho-ERK z-score, replicate mean = -0.77
KDR (kinase insert domain receptor) [SID56478526] → phospho-ERK z-score, replicate mean = -0.48
OXSR1 (oxidative stress responsive kinase 1) [SID152151868] → phospho-ERK z-score, replicate mean = 1.14
PIK3R5 (phosphoinositide-3-kinase regulatory subunit 5) [SID152147687] → phospho-ERK z-score, replicate mean = -0.24
GOLGA5 (golgin A5) [SID134315128] → phospho-ERK z-score, replicate mean = 0.1
PIK3C3 (phosphatidylinositol 3-kinase catalytic subunit type 3) [SID134310831] → phospho-ERK z-score, replicate mean = 0.42
